Results are given in words; binding and its absence hold for the method and conditions named. Binding seen in cells or lysates may run through a third protein. These calls come from enrichment with a bait or labelling near it, and not all partners need be listed.

Amino acid sequences for entries named in this document (tags omitted). Residues count along the entry.
UniProt P54760, residues 16-987: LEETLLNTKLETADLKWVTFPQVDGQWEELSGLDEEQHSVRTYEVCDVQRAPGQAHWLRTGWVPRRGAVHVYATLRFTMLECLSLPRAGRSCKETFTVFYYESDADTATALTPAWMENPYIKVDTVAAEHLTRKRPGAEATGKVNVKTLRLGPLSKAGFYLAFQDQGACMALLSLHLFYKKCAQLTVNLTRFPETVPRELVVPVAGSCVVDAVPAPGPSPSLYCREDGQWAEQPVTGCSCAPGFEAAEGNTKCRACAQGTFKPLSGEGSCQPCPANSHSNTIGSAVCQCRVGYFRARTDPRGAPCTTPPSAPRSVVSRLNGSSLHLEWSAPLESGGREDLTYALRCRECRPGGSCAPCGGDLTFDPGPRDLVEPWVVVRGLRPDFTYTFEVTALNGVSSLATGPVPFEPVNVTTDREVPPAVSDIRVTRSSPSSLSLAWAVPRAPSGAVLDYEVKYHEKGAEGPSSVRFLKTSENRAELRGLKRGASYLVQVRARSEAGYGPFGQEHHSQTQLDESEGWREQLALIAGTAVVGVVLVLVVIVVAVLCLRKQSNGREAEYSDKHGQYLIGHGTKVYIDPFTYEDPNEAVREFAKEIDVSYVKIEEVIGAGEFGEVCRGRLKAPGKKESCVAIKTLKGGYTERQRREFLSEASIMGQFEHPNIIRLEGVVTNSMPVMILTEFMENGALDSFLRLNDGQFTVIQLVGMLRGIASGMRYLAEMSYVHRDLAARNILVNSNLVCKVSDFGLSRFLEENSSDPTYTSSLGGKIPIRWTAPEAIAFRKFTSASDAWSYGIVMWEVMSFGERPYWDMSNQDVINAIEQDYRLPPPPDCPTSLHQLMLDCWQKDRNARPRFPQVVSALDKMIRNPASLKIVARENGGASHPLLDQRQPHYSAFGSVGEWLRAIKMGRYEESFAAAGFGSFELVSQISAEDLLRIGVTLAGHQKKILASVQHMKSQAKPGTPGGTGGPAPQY
UniProt P61088: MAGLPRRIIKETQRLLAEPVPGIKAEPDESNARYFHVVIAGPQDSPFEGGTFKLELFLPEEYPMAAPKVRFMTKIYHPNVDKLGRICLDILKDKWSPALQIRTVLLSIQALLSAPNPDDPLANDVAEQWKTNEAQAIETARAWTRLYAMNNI
UniProt P22314: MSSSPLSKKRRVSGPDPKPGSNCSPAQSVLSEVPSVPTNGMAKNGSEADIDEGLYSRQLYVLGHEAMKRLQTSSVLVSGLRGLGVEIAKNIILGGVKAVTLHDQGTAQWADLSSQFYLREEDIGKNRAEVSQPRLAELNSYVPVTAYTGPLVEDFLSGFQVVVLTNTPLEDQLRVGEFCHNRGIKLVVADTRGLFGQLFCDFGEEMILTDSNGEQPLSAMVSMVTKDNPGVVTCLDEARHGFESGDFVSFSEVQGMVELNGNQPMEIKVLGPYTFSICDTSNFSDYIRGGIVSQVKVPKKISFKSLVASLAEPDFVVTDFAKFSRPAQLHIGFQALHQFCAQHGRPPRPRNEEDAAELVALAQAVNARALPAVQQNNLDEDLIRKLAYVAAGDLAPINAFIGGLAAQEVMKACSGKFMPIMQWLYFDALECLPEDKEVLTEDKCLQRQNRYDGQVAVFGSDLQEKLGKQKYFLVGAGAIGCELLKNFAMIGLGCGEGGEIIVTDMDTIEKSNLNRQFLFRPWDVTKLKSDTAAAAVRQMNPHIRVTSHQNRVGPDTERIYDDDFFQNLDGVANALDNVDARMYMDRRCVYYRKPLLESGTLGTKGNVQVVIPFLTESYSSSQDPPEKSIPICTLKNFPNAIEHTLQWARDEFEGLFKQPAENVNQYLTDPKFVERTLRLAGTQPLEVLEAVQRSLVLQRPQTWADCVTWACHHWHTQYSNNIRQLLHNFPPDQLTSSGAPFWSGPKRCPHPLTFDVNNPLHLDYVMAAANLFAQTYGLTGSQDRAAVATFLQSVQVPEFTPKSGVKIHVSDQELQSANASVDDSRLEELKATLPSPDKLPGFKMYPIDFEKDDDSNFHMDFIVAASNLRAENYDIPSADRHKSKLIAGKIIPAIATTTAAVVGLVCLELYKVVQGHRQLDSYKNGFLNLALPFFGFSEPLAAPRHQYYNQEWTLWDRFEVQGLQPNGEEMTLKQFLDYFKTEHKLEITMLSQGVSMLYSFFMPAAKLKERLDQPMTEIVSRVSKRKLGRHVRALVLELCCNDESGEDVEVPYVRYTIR

For the assay, the target named is EphB4 (Eph receptor B4), native protein of MSTO211H cells (human (endogenous in MSTO211H)) (UniProt P54760). Kind of assay: affinity purification with mass spectrometry; EphB4 immunoprecipitated with anti-EphB4 antibody-coated prot A/G beads from MSTO211H total cell lysates after reversible cross-linking (SPDP); cells cultured with or without an IGF-II neutralizing antibody; label-free LC-Ms/Ms.
For “UBE2N (E2 ubiquitin ligase), native protein of MSTO211H cells (from UniProt P61088 1-152) (enzyme)”, the binding entry is listed as “binds”. For the substance “Cdc48/p97 (Valosin-containing protein, VCP), native protein of MSTO211H cells (from UniProt P55072 1-806) (enzyme)”, the binding entry was “binds”. Regarding “UBA1 (E1 ubiquitin ligase), native protein of MSTO211H cells (from UniProt P22314 1-1058) (enzyme)”, the binding entry is given as “binds”.

Values taken from PMC10139083.
